Measurements: patent publication US11666558B2, “Methods of treating intraocular pressure with activators of Tie-2” (EyePoint Pharmaceuticals, Inc., priority 2015, dated 2023)
Values joined by “and” are separate entries in the source; they are usually repeats but may differ in a detail not shown here. Identical values can stand only once. This continues a long series; more values of the same kind are listed elsewhere.

Test: Ocular tissue concentrations (aqueous humor, vitreous humor, iris, retina, choroid, cornea) after topical ocular, subcutaneous and intravitreal administration
Assay type: in vivo, New Zealand White rabbits
Settings: for Conc. (ng/mL) OS / Conc. (ng/g) OS: left eye; for Conc. (ng/mL) OS / Conc. (ng/mL) OD / Conc. (ng/g) OS / Conc. (ng/g) OD: intravitreal 2.5 mg/eye (group 5), individual animals; for Conc. (ng/mL) OD / Conc. (ng/g) OD: right eye
Method: To measure the concentration of Compound 1 in plasma and ocular tissues following topical ocular, subcutaneous, and intravitreal administration, New Zealand White rabbits were administered Compound 1, and plasma and ocular samples were collected at pre-determined time points. Compound 1 formulations were prepared fresh on each day of dosing.
Ocular tissue samples from both eyes of each animal were collected and weights were recorded. Plasma and ocular tissue sample concentrations of Compound 1 were determined by LC-MS/MS.
New Zealand White rabbits weighing 2.5 to 3.5 kg were used on this study. Rabbits were housed one per cage. Animals were not fasted and only healthy animals with no ocular illness were used. Two rabbits per group were sacrificed at each of four ocular tissue sampling time points for a total of eight rabbits per group.
Animals were anesthetized for ocular (topical) and intravitreal dosing following the 12IA7 IACUC protocol. Each rabbit received a bolus dose of test formulation either via topical ocular administration 3 times daily on Days 1 and 2 (at 0, 6, and 12 hours), and once on Day 3 (at 0 hours) into both eyes; via intravitreal administration into both eyes once on Day 1 (at 0 hours); or via subcutaneous administration 2 times daily on Days 1 and 2 (at 0 and 8 hours) and once daily on Day 3 (at 0 hours). Doses were given within an approximately 1 hour window each day where applicable.
On Day 1, for intravitreal administration, or on Day 3, for topical ocular and subcutaneous administration, at the appropriate ocular tissue collection time points, animals were euthanized and both eyes were enucleated immediately. Following enucleation, each eye was rinsed with phosphate-buffered saline. Ocular tissue samples from both eyes of each animal were collected at predetermined time points and weights were recorded. All the samples were frozen immediately on dry ice, and stored at −60° C. to −80° C. pending bioanalysis.
An LC-MS/MS method was developed for the determination of Compound 1 in rabbit aqueous tissues (plasma, aqueous and vitreous humor) and solid ocular tissue samples. A pre-study standard curve was analyzed to determine the specificity, range, and lower limit of quantitation of the method. Plasma and tissue homogenate study samples were extracted and analyzed. All the samples were treated identically to the standards.
One eight-point standard curve was used in each analytical batch. To be accepted, each batch must have had at least five of eight standards with accuracy within ±20% of nominal, except at the lower limit of quantification (LLOQ), where ±25% was acceptable.
Concentration versus time data is plotted in FIGS. 3-16. All data are expressed as ng/g of the free drug. Samples that were below the limit of quantitation (0.2 ng/mL) were not used in the calculation of averages.

[1] = Choroid homogenate, 0.5 hr, sodium salt, subcutaneous 5 mg/kg/dose, Group 2
[2] = Choroid homogenate, 1 hr, free acid, subcutaneous 5 mg/kg/dose, Group 3
[3] = Choroid homogenate, 1 hr, sodium salt, subcutaneous 5 mg/kg/dose, Group 2
[4] = Choroid homogenate, 2 hr, free acid, subcutaneous 5 mg/kg/dose, Group 3
[5] = Choroid homogenate, 24 hr, sodium salt, intravitreal 2.5 mg/eye, Group 4
[6] = Choroid homogenate, 48 hr, sodium salt, intravitreal 2.5 mg/eye, Group 4
[7] = Choroid, 0.5 hr, sodium salt, subcutaneous 5 mg/kg/dose, Group 2
[8] = Choroid, 1 hr, free acid, subcutaneous 5 mg/kg/dose, Group 3
[9] = Choroid, 1 hr, sodium salt, subcutaneous 5 mg/kg/dose, Group 2
[10] = Choroid, 2 hr, free acid, subcutaneous 5 mg/kg/dose, Group 3
[11] = Choroid, 24 hr, sodium salt, intravitreal 2.5 mg/eye, Group 4
[12] = Choroid, 48 hr, sodium salt, intravitreal 2.5 mg/eye, Group 4
[13] = Cornea homogenate, 1 hr, sodium salt, subcutaneous 5 mg/kg/dose, Group 2
[14] = Cornea homogenate, 4 hr, sodium salt, subcutaneous 5 mg/kg/dose, Group 2
[15] = Cornea homogenate, 6.0 hr, sodium salt, intravitreal 2.5 mg/eye, Group 4
[16] = Cornea homogenate, 24 hr, sodium salt, intravitreal 2.5 mg/eye, Group 4
[17] = Cornea homogenate, 48 hr, sodium salt, intravitreal 2.5 mg/eye, Group 4
[18] = Cornea, 4 hr, sodium salt, subcutaneous 5 mg/kg/dose, Group 2
[19] = Cornea, 6.0 hr, sodium salt, intravitreal 2.5 mg/eye, Group 4
[20] = Cornea, 24 hr, sodium salt, intravitreal 2.5 mg/eye, Group 4
[21] = Cornea, 48 hr, sodium salt, intravitreal 2.5 mg/eye, Group 4
[22] = Iris homogenate, 1 hr, sodium salt, subcutaneous 5 mg/kg/dose, Group 2
[23] = Iris homogenate, 2 hr, free acid, subcutaneous 5 mg/kg/dose, Group 3
[24] = Iris homogenate, 4 hr, free acid, subcutaneous 5 mg/kg/dose, Group 3
[25] = Iris homogenate, 6.0 hr, sodium salt, intravitreal 2.5 mg/eye, Group 4

COC(=O)N[C@@H](Cc1ccccc1)C(=O)N[C@@H](Cc1ccc(NS(=O)(=O)O)cc1)c1csc(-c2cccs2)n1 [Compound 1]
Choroid Conc. (ng/mL) OD [1]: 25.6 ng/mL
Choroid Conc. (ng/mL) OS (Choroid homogenate, 0.5 hr, free acid, subcutaneous 5 mg/kg/dose, Group 3): 14.0 ng/mL
Choroid Conc. (ng/mL) OS [1]: 21.4 ng/mL
Choroid Conc. (ng/mL) OD [2]: 8.65 ng/mL
Choroid Conc. (ng/mL) OD [3]: 19.2 ng/mL
Choroid Conc. (ng/mL) OS [2]: 7.60 ng/mL
Choroid Conc. (ng/mL) OS [3]: 11.4 ng/mL
Choroid Conc. (ng/mL) OD [4]: 4.26 ng/mL
Choroid Conc. (ng/mL) OS [4]: 4.94 ng/mL
Choroid Conc. (ng/mL) OD (Choroid homogenate, 4 hr, free acid, subcutaneous 5 mg/kg/dose, Group 3): 4.65 ng/mL
Choroid Conc. (ng/mL) OD (Choroid homogenate, 4 hr, sodium salt, subcutaneous 5 mg/kg/dose, Group 2): 1.50 ng/mL
Conc. (ng/mL) OS (Choroid homogenate, 6.0 hr): 69700 ng/mL
Conc. (ng/mL) OD (Choroid homogenate, 6.0 hr): 32800 ng/mL and 75400 ng/mL
Choroid Conc. (ng/mL) OD [5]: 18400 ng/mL
Choroid Conc. (ng/mL) OS [5]: 10400 ng/mL
Conc. (ng/mL) OS (Choroid homogenate, 24 hr): 43500 ng/mL
Conc. (ng/mL) OD (Choroid homogenate, 24 hr): 15200 ng/mL and 57500 ng/mL
Choroid Conc. (ng/mL) OD [6]: 4040 ng/mL
Choroid Conc. (ng/mL) OS [6]: 2790 ng/mL
Conc. (ng/mL) OS (Choroid homogenate, 48 hr): 14800 ng/mL
Conc. (ng/mL) OD (Choroid homogenate, 48 hr): 9580 ng/mL
Choroid Conc. (ng/mL) OS (Choroid homogenate, 72 hr, sodium salt, intravitreal 2.5 mg/eye, Group 4): 290 ng/mL
Conc. (ng/mL) OS (Choroid homogenate, 72 hr): 2910 ng/mL
Conc. (ng/mL) OD (Choroid homogenate, 72 hr): 2270 ng/mL
Choroid Conc. (ng/g) OD [7]: 282 ng/g
Choroid Conc. (ng/g) OS (Choroid, 0.5 hr, free acid, subcutaneous 5 mg/kg/dose, Group 3): 154 ng/g
Choroid Conc. (ng/g) OS [7]: 235 ng/g
Choroid Conc. (ng/g) OD [8]: 95.2 ng/g
Choroid Conc. (ng/g) OD [9]: 211 ng/g
Choroid Conc. (ng/g) OS [8]: 83.6 ng/g
Choroid Conc. (ng/g) OS [9]: 125 ng/g
Choroid Conc. (ng/g) OD [10]: 46.9 ng/g
Choroid Conc. (ng/g) OS [10]: 54.3 ng/g
Choroid Conc. (ng/g) OD (Choroid, 4 hr, free acid, subcutaneous 5 mg/kg/dose, Group 3): 51.2 ng/g
Choroid Conc. (ng/g) OD (Choroid, 4 hr, sodium salt, subcutaneous 5 mg/kg/dose, Group 2): 16.5 ng/g
Conc. (ng/g) OS (Choroid, 6.0 hr): 766700 ng/g
Conc. (ng/g) OD (Choroid, 6.0 hr): 360800 ng/g and 829400 ng/g
Choroid Conc. (ng/g) OD [11]: 202400 ng/g
Choroid Conc. (ng/g) OS [11]: 114400 ng/g
Conc. (ng/g) OS (Choroid, 24 hr): 478500 ng/g
Conc. (ng/g) OD (Choroid, 24 hr): 167200 ng/g and 632500 ng/g
Choroid Conc. (ng/g) OD [12]: 44440 ng/g
Choroid Conc. (ng/g) OS [12]: 30690 ng/g
Conc. (ng/g) OD (Choroid, 48 hr): 105380 ng/g
Choroid Conc. (ng/g) OS (Choroid, 72 hr, sodium salt, intravitreal 2.5 mg/eye, Group 4): 3190 ng/g
Conc. (ng/g) OS (Choroid, 72 hr): 32010 ng/g
Conc. (ng/g) OD (Choroid, 72 hr): 24970 ng/g
Cornea Conc. (ng/mL) OS (Cornea homogenate, 0.5 hr, sodium salt, subcutaneous 5 mg/kg/dose, Group 2): 1.94 ng/mL
Cornea Conc. (ng/mL) OD [13]: 2.13 ng/mL
Cornea Conc. (ng/mL) OS [13]: 2.30 ng/mL
Cornea Conc. (ng/mL) OD (Cornea homogenate, 4 hr, free acid, subcutaneous 5 mg/kg/dose, Group 3): 0.847 ng/mL
Cornea Conc. (ng/mL) OD [14]: 0.873 ng/mL
Cornea Conc. (ng/mL) OS [14]: 1.26 ng/mL
Cornea Conc. (ng/mL) OD [15]: 6710 ng/mL
Cornea Conc. (ng/mL) OS [15]: 6030 ng/mL
Conc. (ng/mL) OS (Cornea homogenate, 6.0 hr): 3140 ng/mL and 1180 ng/mL
Conc. (ng/mL) OD (Cornea homogenate, 6.0 hr): 7610 ng/mL
Cornea Conc. (ng/mL) OD [16]: 2940 ng/mL
Cornea Conc. (ng/mL) OS [16]: 1930 ng/mL
Conc. (ng/mL) OS (Cornea homogenate, 24 hr): 1050 ng/mL
Conc. (ng/mL) OD (Cornea homogenate, 24 hr): 2520 ng/mL
Cornea Conc. (ng/mL) OD [17]: 538 ng/mL
Cornea Conc. (ng/mL) OS [17]: 487 ng/mL
Conc. (ng/mL) OS (Cornea homogenate, 48 hr): 571 ng/mL
Conc. (ng/mL) OD (Cornea homogenate, 48 hr): 384 ng/mL
Conc. (ng/mL) OS (Cornea homogenate, 72 hr): 117 ng/mL and 45.3 ng/mL
Conc. (ng/mL) OD (Cornea homogenate, 72 hr): 37.7 ng/mL and 77.2 ng/mL
Cornea Conc. (ng/g) OS (Cornea, 0.5 hr, sodium salt, subcutaneous 5 mg/kg/dose, Group 2): 21.3 ng/g
Cornea Conc. (ng/g) OD (Cornea, 1 hr, sodium salt, subcutaneous 5 mg/kg/dose, Group 2): 23.4 ng/g
Cornea Conc. (ng/g) OD (Cornea, 4 hr, free acid, subcutaneous 5 mg/kg/dose, Group 3): 9.32 ng/g
Cornea Conc. (ng/g) OD [18]: 9.60 ng/g
Cornea Conc. (ng/g) OS [18]: 13.9 ng/g
Cornea Conc. (ng/g) OD [19]: 73810 ng/g
Cornea Conc. (ng/g) OS [19]: 66330 ng/g
Conc. (ng/g) OS (Cornea, 6.0 hr): 34540 ng/g and 12980 ng/g
Conc. (ng/g) OD (Cornea, 6.0 hr): 83710 ng/g
Cornea Conc. (ng/g) OD [20]: 32340 ng/g
Cornea Conc. (ng/g) OS [20]: 21230 ng/g
Conc. (ng/g) OS (Cornea, 24 hr): 11550 ng/g
Conc. (ng/g) OD (Cornea, 24 hr): 27720 ng/g
Cornea Conc. (ng/g) OD [21]: 5918 ng/g
Cornea Conc. (ng/g) OS [21]: 5357 ng/g
Conc. (ng/g) OS (Cornea, 48 hr): 6281 ng/g
Conc. (ng/g) OD (Cornea, 48 hr): 4224 ng/g
Conc. (ng/g) OS (Cornea, 72 hr): 1287 ng/g and 498 ng/g
Conc. (ng/g) OD (Cornea, 72 hr): 415 ng/g and 849 ng/g
Iris Conc. (ng/mL) OD (Iris homogenate, 0.5 hr, sodium salt, subcutaneous 5 mg/kg/dose, Group 2): 41.3 ng/mL
Iris Conc. (ng/mL) OS (Iris homogenate, 0.5 hr, free acid, subcutaneous 5 mg/kg/dose, Group 3): 3.54 ng/mL
Iris Conc. (ng/mL) OD [22]: 9.02 ng/mL
Iris Conc. (ng/mL) OS (Iris homogenate, 1 hr, free acid, subcutaneous 5 mg/kg/dose, Group 3): 3.12 ng/mL
Iris Conc. (ng/mL) OS [22]: 5.13 ng/mL
Iris Conc. (ng/mL) OD [23]: 2.91 ng/mL
Iris Conc. (ng/mL) OS [23]: 1.67 ng/mL
Iris Conc. (ng/mL) OD [24]: 1.63 ng/mL
Iris Conc. (ng/mL) OD (Iris homogenate, 4 hr, sodium salt, subcutaneous 5 mg/kg/dose, Group 2): 3.07 ng/mL
Iris Conc. (ng/mL) OS [24]: 0.794 ng/mL
Iris Conc. (ng/mL) OD [25]: 27800 ng/mL
Iris Conc. (ng/mL) OS [25]: 30600 ng/mL
Conc. (ng/mL) OS (Iris homogenate, 6.0 hr): 12200 ng/mL
